Assay results published in PMC9381590.
No constants are given. Whether binding was seen depends on the method and setting. In cells and extracts the contact can be indirect. Here binding means that the protein was enriched with, or labelled near, the bait; the list need not be complete.

Chains of the proteins cited; added tags and fusions are not shown. Lines headed by an entry give the natural chain unless they say otherwise; changes in a name come on top.
UniProt Q13838: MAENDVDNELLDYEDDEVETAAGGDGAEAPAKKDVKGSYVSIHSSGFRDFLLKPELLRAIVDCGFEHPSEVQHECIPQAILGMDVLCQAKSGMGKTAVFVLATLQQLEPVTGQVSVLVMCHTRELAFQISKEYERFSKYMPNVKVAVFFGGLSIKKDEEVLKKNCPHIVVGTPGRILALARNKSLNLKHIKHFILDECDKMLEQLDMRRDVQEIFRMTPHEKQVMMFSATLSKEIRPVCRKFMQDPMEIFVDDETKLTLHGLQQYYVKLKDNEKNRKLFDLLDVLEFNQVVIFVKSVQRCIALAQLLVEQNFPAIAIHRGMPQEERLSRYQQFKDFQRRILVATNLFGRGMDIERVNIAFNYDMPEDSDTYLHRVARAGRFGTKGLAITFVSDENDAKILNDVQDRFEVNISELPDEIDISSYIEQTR
UniProt P04406: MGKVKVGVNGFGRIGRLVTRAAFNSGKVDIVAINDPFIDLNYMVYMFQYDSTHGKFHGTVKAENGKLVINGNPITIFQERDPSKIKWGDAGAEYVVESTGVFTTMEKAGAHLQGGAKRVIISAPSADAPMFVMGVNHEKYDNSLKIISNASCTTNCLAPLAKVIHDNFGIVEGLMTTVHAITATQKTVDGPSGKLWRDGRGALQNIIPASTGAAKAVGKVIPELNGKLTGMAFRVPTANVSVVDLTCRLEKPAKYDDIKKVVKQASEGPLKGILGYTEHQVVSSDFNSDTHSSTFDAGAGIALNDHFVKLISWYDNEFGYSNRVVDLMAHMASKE
UniProt P14618: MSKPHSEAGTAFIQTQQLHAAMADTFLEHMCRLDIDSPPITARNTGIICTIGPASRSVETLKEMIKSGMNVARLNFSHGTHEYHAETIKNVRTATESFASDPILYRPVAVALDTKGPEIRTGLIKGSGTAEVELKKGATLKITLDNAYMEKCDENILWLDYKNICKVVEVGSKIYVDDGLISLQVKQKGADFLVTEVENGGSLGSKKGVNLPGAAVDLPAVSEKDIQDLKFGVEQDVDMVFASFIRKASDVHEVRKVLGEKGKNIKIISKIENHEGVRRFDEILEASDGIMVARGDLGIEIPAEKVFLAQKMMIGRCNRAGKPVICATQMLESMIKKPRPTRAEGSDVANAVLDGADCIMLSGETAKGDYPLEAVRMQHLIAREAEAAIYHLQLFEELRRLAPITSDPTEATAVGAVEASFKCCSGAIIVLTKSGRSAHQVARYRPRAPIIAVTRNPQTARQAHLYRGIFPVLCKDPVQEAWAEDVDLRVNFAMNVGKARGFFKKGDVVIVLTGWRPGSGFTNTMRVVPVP

Molecular target: FLAG-DDX39B (human) (UniProt Q13838)
Test: affinity purification with mass spectrometry; lysates of CRC cells stably expressing FLAG-vector or FLAG-DDX39B, anti-FLAG M2 magnetic beads, SDS-PAGE bands, LC-MS/MS

| Substance | binding |
| --- | --- |
| GAPDH (from UniProt P04406 1-335) | binds |
| PKM (from UniProt P14618 1-531) | binds |
